Structures can show the parent of a compound that is named as a salt. This is one part of the list. The numbers are fractions of the control, whatever unit the source prints. Most values lie at the level of the controls, where differences are scatter.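 MIN6, a mouse insulinoma beta-cell line, stably carries a lentiviral reporter where Pdx1 and Ins1 promoters each drive a nuclear fluorescent protein; Hoechst staining and automated imaging counted cells. Drugs were candidate hits if Ins1 promoter readout exceeded two median absolute deviations from DMSO controls while Pdx1 activity stayed near normal.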

The test system of the test is MIN6. In words: % Pdx1+ Ins1-low (RFP-only, immature) cells relative to DMSO control (fold of DMSO control); higher = more immature Pdx1+/Ins1-low cells. The note with it: 8.5 µM; 48 h; glucose 5 mM.
Take `CCOC(=O)OC(C)OC(=O)[C@@H]1N2C(=O)[C@@H](NC(=O)[C@H](N)c3ccccc3)[C@H]2SC1(C)C` (stereo partly specified) [Bacampicillin hydrochloride]: the “% Pdx1+ Ins1-low” value amounted to 0.71. Consider `Cc1cc(=O)oc2cc(O)ccc12` [Hymecromone], for which the “% Pdx1+ Ins1-low” value was found to be 0.531. As to `CCOC(=O)c1ccc(OC(=O)CCCCCNC(=N)N)cc1` [Gabexate mesilate], the “% Pdx1+ Ins1-low” value was determined as 0.975. As for `CCCCC[C@H](O)/C=C/[C@@H]1[C@@H](C/C=C\CCCC(=O)O)[C@@H](O)C[C@H]1O` [Dinoprost trometamol], the “% Pdx1+ Ins1-low” value amounted to 1.16.

Take `CC(=O)c1ccc(S(=O)(=O)NC(=O)NC2CCCCC2)cc1` [Acetohexamide]: the “% Pdx1+ Ins1-low” value worked out at 0.874. For the compound `CC(COc1ccccc1)N(CCCl)Cc1ccccc1` (stereo unspecified) [Phenoxybenzamine hydrochloride], the “% Pdx1+ Ins1-low” value is 0.641.

As for `CCCNC(C)C(=O)Nc1ccccc1C` (stereo unspecified) [Prilocaine hydrochloride], the “% Pdx1+ Ins1-low” value came out at 1. With `COc1ccc(CN(CCN(C)C)c2ccccn2)cc1` [Pyrilamine maleate], the “% Pdx1+ Ins1-low” value worked out at 0.778.

Regarding `Cc1scc2c1N(C(=O)CN1CCN(C)CC1)c1ccccc1NC2=O` [Telenzepine dihydrochloride], the “% Pdx1+ Ins1-low” value stood at 1.44. Regarding `COc1cc2cc3c4cc(OC)c(OC)cc4cc[n+]3c(C)c2cc1OC` [Coralyne chloride hydrate], the “% Pdx1+ Ins1-low” value was 1.35.

Turning to `C=C1c2cccc(O)c2C(=O)C2=C(O)[C@]3(O)C(=O)C(C(N)=O)=C(O)[C@@H](N(C)C)[C@@H]3[C@@H](O)[C@H]12` [Methacycline hydrochloride], the “% Pdx1+ Ins1-low” value turned out to be 0.593. Take `c1ccc(C2CN3CCSC3=N2)cc1` (stereo unspecified) [Tetramisole hydrochloride]: the “% Pdx1+ Ins1-low” value is 0.736. The value for `Cn1c(=O)c2nc[nH]c2n(C)c1=O` [Theophylline monohydrate] was 0.816. Take `O=C(Cn1ccnc1[N+](=O)[O-])NCCO` [Etanidazole]: the “% Pdx1+ Ins1-low” value turned out to be 0.952. The value for `CO[C@H]1/C=C/O[C@@]2(C)Oc3c(C)c(O)c4c(c3C2=O)C2=NC3(CCN(CC(C)C)CC3)NC2=C(NC(=O)/C(C)=C\C=C\[C@H](C)[C@H](O)[C@@H](C)[C@@H](O)[C@@H](C)[C@H](OC(C)=O)[C@@H]1C)C4=O` [Rifabutin] was 0.679; that for `O=c1cc(-c2ccc(O)cc2)oc2cc(O)cc(O)c12` [Apigenin] was 1.23; that for `NC(=O)N1c2ccccc2C=Cc2ccccc21` [Carbamazepine] was 0.96. Regarding `Clc1ccc(C(Cn2ccnc2)OCc2c(Cl)cccc2Cl)c(Cl)c1` (stereo unspecified) [Isoconazole], the “% Pdx1+ Ins1-low” value worked out at 0.868. The value for `COc1c(O[C@@H]2O[C@H](CO)[C@@H](O)[C@H](O)[C@H]2O)cc2c(c1OC)-c1ccc(SC)c(=O)cc1[C@@H](NC(C)=O)CC2` [Thiocolchicoside] was 0.803. As for `CN(C)CCN(Cc1cccs1)c1ccccn1` [Methapyrilene hydrochloride], the “% Pdx1+ Ins1-low” value was found to be 1.05. As to `CC(=O)N[C@@H](CC(C)C)C(=O)O` [N-Acetyl-L-leucine], the “% Pdx1+ Ins1-low” value is 0.984.

In the case of `Nc1nc(=O)c2nc(CNc3ccc(C(=O)N[C@@H](CCC(=O)O)C(=O)O)cc3)cnc2[nH]1` [Folic acid], the “% Pdx1+ Ins1-low” value came to 0.895. Take `CC[C@H]1OC(=O)[C@H](C)[C@@H](O[C@H]2C[C@@](C)(OC)[C@@H](O)[C@H](C)O2)[C@H](C)[C@@H](O[C@@H]2O[C@H](C)C[C@H](N(C)C)[C@H]2O)[C@](C)(O)C[C@@H](C)/C(=N\OCOCCOC)[C@H](C)[C@@H](O)[C@]1(C)O` [Roxithromycin]: the “% Pdx1+ Ins1-low” value came to 0.829. The value for `COc1c2ccoc2nc2c(OC)c(OCC(O)C(C)(C)O)ccc12` (stereo unspecified) [Evoxine] was 0.529; that for `Nc1nc(=S)c2ncn([C@@H]3O[C@H](CO)[C@@H](O)[C@H]3O)c2[nH]1` [Thioguanosine] was 1.11; that for `CC(C)NCC(O)COc1ccc(COCCOC(C)C)cc1` (stereo unspecified) [Bisoprolol fumarate] was 1.42. The value for `OC(CCN1CCCCC1)(c1ccccc1)C1CC2C=CC1C2` (stereo unspecified) [Biperiden hydrochloride] was 0.699; that for `CCN(CC)CC#CCOC(=O)C(O)(c1ccccc1)C1CCCCC1` (stereo unspecified) [Oxybutynin chloride] was 1.16. On to `Cc1ncc([N+](=O)[O-])n1CCO` [Metronidazole], for which the “% Pdx1+ Ins1-low” value was 0.901.

Take `CCN(Cc1ccncc1)C(=O)C(CO)c1ccccc1` (stereo unspecified) [Tropicamide]: the “% Pdx1+ Ins1-low” value was found to be 1.14. With `O=C(NCCNCC(O)COc1ccc(O)cc1)N1CCOCC1` (stereo unspecified) [Xamoterol hemifumarate], the “% Pdx1+ Ins1-low” value was 1.43. As for `CC(C)N1CCN(c2ccc(OCC3COC(Cn4cncn4)(c4ccc(Cl)cc4Cl)O3)cc2)CC1` (stereo unspecified) [Terconazole], the “% Pdx1+ Ins1-low” value was 0.76. The value for `COc1ccc2[nH]cc(CCNC(C)=O)c2c1` [Melatonin] was 1.67. Next, `NC[C@H]1O[C@H](O[C@H]2[C@H](O[C@@H]3O[C@H](CO)[C@@H](O)[C@H]3O)[C@@H](O)[C@H](N)C[C@@H]2N)[C@H](N)[C@@H](O)[C@@H]1O` [Ribostamycin sulfate salt]: 0.903. Turning to `COc1ccc(C(=O)NCc2cccnc2)cc1C(=O)NCc1cccnc1` [Picotamide monohydrate], the “% Pdx1+ Ins1-low” value turned out to be 0.859.

As for `O=c1c(O)c(-c2cc(O)c(O)c(O)c2)oc2cc(O)cc(O)c12` [Myricetin], the “% Pdx1+ Ins1-low” value amounted to 1.

For `CC(=O)N[C@@H](CC(=O)N[C@@H](CCC(=O)O)C(=O)O)C(=O)O` [Spaglumic acid], the “% Pdx1+ Ins1-low” value worked out at 0.701.

For the compound `COc1ccc(-c2cc(=O)c3c(O)cc(O)cc3o2)cc1` [Acacetin], the “% Pdx1+ Ins1-low” value was found to be 0.81. The value for `Cc1ccc(S(=O)(=O)NC(=O)NN2CC3CCCC3C2)cc1` (stereo unspecified) [Gliclazide] was 0.867; that for `COc1nc(C)nc(Cl)c1NC1=NCCN1` [Moxonidine] was 1.04.

`CCn1cc(C(=O)O)c(=O)c2cnc(N3CCNCC3)nc21` [Pipemidic acid]: the “% Pdx1+ Ins1-low” value was 0.555.

Regarding `COc1cc2nc(N3CCN(C(=O)c4ccco4)CC3)nc(N)c2cc1OC` [Prazosin hydrochloride], the “% Pdx1+ Ins1-low” value turned out to be 1.01.

Consider `O=C(CCCN1CC=C(n2c(=O)[nH]c3ccccc32)CC1)c1ccc(F)cc1` [Droperidol], for which the “% Pdx1+ Ins1-low” value turned out to be 1.15. The value for `CCN(CC)CCNC(=O)c1cc(S(C)(=O)=O)ccc1OC` [Tiapride hydrochloride] was 0.754; that for `CCn1cc(C(=O)O)c(=O)c2ccc(C)nc21` [Nalidixic acid sodium salt hydrate] was 1.17.

Regarding `Nc1c(O)cccc1C(=O)CC(N)C(=O)O` (racemic) [Kynurenine, 3-hydroxy (R,S)], the “% Pdx1+ Ins1-low” value came out at 1.03.

(Values after the supplement of paper PMC4807443.)
